The other results are listed elsewhere or left out.
What was measured:
Test in all cases: log2 fold change, soluble protein after heating vs DMSO (PISA); higher = thermal stabilisation; K562 lysate, 10 uM; active = over 0.2 and 3.5 SD of the protein, either way, in both replicates (recomputed)
vemurafenib = compound: CCCS(=O)(=O)Nc1ccc(F)c(C(=O)c2c[nH]c3ncc(-c4ccc(Cl)cc4)cc23)c1F [vemurafenib]
Procedure, shortened: (§1)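 The values are log-two fold changes in thermal stability compared with solvent controls and come from duplicates. They were obtained by TMTpro 16plex LC-MS/MS, with channel sums equalised, on the supernatant after 21,000xg for 90 min. That supernatant came from crude K562 extract at 1 mg/mL protein treated with 10 μM compound for 30 min, heated for 3 min across 48°C-58°C, pooled and brought to 0.5% NP-40 at 4°C.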

Sequences of proteins named here, by UniProt entry; tags and fusion partners are left off. A change or cut given only in a name is not applied to a line headed by its entry.
UniProt P55795: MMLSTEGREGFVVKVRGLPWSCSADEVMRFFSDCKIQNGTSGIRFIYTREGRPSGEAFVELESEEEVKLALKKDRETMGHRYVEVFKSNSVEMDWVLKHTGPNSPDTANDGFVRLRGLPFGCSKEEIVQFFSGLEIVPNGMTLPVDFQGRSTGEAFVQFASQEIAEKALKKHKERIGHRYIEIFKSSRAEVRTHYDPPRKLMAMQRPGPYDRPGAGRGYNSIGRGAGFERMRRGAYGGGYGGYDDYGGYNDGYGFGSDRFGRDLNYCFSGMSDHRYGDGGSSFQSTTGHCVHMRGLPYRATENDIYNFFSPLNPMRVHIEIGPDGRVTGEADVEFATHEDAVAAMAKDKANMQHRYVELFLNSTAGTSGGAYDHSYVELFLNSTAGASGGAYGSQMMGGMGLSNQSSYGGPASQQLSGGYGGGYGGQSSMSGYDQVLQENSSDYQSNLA
UniProt Q01581: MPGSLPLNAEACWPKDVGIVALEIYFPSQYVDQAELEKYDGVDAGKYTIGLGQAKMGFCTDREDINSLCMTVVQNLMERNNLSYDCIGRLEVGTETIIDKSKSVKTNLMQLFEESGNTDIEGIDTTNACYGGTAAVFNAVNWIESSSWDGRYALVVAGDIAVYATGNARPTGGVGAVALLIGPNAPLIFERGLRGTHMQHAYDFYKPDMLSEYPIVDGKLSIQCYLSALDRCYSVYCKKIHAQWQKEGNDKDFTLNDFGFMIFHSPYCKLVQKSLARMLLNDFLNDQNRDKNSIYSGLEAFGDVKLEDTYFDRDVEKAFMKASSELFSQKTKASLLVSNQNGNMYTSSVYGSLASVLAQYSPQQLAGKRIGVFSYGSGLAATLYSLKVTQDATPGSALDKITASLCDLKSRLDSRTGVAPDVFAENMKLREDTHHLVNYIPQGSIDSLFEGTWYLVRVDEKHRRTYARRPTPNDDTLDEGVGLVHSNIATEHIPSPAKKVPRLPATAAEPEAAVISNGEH
UniProt Q14103: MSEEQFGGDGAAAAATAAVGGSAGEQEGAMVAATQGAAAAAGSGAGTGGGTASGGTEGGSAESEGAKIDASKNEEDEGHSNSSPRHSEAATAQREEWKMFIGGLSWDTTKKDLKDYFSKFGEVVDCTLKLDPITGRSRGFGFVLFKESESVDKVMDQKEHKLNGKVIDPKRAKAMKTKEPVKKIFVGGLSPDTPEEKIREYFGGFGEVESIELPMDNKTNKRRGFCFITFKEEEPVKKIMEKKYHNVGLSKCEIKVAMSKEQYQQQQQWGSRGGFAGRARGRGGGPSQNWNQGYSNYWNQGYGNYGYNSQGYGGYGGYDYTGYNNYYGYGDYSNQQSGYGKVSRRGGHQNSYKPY
UniProt Q96FZ2: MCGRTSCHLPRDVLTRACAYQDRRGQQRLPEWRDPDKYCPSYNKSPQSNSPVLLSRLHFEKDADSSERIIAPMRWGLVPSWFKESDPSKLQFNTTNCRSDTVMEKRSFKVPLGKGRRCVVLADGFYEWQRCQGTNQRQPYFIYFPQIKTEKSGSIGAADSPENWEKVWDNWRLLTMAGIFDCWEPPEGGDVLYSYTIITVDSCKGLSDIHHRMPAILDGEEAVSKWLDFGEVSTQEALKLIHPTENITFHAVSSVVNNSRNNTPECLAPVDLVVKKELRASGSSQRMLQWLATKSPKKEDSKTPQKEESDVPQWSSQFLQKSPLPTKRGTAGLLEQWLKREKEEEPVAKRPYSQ
UniProt Q8TDG4: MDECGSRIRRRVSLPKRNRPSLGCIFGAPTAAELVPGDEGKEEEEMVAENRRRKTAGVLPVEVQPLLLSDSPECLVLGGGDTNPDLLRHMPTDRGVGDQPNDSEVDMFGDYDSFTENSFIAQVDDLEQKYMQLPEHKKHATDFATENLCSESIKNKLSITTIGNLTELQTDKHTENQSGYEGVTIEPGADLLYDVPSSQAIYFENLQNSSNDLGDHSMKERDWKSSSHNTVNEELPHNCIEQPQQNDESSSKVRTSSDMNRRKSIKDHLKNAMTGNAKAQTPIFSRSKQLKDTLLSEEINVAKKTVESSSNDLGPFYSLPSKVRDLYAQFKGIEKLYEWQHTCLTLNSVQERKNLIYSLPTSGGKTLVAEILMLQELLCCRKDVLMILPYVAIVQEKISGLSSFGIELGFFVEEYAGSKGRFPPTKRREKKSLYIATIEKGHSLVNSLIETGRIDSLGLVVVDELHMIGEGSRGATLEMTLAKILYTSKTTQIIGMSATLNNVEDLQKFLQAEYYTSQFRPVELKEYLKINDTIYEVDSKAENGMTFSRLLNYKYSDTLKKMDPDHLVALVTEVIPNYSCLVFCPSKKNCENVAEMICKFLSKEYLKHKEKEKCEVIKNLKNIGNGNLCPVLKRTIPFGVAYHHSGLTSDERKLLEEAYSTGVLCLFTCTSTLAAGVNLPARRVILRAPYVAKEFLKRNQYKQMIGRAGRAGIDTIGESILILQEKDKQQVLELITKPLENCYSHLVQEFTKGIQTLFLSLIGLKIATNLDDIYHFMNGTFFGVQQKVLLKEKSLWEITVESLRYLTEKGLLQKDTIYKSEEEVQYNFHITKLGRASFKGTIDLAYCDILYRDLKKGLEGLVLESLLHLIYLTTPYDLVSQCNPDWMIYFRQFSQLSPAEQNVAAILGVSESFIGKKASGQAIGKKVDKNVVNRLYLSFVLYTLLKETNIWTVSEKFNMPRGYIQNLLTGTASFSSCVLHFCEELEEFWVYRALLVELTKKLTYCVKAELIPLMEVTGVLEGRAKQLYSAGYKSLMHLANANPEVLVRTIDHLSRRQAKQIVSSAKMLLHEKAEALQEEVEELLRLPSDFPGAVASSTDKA
UniProt P34931, whole entry, looked up: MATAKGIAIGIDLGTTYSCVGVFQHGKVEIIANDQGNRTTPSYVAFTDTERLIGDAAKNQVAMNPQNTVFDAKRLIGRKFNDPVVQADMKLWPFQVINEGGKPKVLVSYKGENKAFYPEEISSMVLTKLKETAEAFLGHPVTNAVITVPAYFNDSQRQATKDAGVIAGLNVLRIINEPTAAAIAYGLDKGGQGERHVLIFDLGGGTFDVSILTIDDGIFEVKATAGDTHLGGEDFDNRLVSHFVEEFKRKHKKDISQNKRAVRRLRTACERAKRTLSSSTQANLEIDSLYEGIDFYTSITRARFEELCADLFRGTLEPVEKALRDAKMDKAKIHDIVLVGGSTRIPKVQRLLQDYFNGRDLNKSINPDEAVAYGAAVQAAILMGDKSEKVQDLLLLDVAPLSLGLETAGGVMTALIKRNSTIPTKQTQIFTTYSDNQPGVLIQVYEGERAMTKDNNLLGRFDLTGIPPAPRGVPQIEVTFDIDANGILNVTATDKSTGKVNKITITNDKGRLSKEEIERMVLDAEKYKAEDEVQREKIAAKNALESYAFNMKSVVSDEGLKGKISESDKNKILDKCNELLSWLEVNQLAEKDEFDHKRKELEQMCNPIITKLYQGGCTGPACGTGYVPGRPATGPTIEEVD
UniProt Q8NG08: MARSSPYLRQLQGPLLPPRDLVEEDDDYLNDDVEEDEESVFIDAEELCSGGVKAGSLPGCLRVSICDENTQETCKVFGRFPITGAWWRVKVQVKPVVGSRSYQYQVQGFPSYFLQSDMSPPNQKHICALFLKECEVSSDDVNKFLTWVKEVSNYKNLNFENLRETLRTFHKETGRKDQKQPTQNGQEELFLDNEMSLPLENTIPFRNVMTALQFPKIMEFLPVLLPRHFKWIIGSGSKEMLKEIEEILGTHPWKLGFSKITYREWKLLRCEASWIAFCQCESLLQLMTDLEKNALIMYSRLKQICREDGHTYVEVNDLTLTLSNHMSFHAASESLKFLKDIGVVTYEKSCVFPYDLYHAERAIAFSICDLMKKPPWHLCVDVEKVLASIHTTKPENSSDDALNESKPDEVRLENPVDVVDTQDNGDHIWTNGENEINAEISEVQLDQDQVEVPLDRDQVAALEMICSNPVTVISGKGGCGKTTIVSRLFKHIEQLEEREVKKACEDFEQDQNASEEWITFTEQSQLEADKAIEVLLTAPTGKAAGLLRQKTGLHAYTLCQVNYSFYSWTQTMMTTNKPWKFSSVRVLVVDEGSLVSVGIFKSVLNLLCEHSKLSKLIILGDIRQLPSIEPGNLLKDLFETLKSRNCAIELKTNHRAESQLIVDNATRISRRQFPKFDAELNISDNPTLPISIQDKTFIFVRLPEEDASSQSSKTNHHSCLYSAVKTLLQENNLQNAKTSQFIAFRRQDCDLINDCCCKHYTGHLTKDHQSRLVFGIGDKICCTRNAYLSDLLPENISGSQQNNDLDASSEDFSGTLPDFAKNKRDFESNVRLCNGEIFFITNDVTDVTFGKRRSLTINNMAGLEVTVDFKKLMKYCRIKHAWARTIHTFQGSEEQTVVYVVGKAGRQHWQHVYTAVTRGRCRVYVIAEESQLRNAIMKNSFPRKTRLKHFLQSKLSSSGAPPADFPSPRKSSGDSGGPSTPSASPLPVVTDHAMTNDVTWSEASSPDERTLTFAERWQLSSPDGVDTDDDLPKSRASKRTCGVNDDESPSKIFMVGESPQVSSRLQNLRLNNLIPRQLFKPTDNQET
UniProt Q5T447: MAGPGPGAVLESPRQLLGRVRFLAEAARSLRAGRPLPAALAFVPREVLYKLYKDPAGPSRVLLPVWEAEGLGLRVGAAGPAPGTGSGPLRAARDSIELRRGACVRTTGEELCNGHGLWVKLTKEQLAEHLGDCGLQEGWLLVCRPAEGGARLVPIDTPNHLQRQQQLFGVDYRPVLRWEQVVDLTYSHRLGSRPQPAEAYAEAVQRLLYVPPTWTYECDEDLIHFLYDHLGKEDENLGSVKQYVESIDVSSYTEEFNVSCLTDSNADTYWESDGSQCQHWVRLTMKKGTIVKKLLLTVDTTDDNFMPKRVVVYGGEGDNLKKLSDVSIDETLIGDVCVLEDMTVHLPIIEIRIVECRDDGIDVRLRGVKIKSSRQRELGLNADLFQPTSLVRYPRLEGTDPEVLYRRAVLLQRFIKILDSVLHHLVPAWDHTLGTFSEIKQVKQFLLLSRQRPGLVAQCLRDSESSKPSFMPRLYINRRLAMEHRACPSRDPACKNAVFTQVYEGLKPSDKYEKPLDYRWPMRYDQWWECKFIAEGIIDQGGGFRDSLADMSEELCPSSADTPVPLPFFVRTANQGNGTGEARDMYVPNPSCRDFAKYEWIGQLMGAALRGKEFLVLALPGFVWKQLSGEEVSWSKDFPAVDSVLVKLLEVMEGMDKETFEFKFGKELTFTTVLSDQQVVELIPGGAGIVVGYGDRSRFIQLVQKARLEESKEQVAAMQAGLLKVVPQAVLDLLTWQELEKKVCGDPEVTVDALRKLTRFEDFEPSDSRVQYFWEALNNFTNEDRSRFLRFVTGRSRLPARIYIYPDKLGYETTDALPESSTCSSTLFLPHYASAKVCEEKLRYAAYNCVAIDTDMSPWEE
UniProt O00291: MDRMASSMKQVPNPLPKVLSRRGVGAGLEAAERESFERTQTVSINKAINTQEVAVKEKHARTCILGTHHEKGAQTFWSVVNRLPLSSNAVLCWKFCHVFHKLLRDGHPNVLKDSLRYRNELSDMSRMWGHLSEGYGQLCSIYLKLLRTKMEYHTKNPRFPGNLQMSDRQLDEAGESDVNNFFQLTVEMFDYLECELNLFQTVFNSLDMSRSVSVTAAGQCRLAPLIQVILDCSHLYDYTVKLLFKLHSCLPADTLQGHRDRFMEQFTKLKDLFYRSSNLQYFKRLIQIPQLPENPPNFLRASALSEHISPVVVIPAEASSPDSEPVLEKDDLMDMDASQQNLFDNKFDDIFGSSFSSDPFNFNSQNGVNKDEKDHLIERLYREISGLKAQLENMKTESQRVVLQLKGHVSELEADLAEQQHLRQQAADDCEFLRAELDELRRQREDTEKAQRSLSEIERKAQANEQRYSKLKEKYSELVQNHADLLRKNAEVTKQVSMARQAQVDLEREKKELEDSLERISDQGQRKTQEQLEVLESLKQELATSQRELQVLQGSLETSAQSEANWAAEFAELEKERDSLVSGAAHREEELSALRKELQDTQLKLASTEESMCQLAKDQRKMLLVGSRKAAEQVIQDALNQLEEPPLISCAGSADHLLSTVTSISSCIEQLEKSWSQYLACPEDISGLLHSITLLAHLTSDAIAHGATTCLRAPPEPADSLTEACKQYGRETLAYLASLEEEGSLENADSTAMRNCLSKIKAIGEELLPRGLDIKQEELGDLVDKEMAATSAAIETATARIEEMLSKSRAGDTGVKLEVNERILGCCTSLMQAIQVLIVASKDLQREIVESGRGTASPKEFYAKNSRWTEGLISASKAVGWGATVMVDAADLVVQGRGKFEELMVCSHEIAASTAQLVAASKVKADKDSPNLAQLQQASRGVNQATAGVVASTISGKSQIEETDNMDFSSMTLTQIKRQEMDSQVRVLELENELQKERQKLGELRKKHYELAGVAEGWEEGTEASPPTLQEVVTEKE

[1] = compound: CCCS(=O)(=O)Nc1ccc(F)c(C(=O)c2c[nH]c3ncc(Cl)cc23)c1F
Procedure, shortened: as §1

barasertib = compound: CCN(CCCOc1ccc2c(Nc3cc(CC(=O)Nc4cccc(F)c4)[nH]n3)ncnc2c1)CCOP(=O)(O)O [barasertib]
Procedure, shortened: as §1

[2] = compound: CC[C@@H]1C(=O)N(C)c2cnc(Nc3ccc(C(=O)NC4CCN(C)CC4)cc3OC)nc2N1C1CCCC1
Procedure, shortened: as §1

volasertib = compound: CC[C@@H]1C(=O)N(C)c2cnc(Nc3ccc(C(=O)N[C@H]4CC[C@H](N5CCN(CC6CC6)CC5)CC4)cc3OC)nc2N1C(C)C [volasertib]
Procedure, shortened: as §1

[3] = compound: CCn1c(C(=O)N(C2CC2)C2CC2)cc2c3c(ncn3C)c(Nc3cc(C)n(C)n3)nc21
Procedure, shortened: as §1

[4] = compound: CCn1cc(-c2ccnc3[nH]c(-c4cccc(CN(C)C)c4)cc23)c(-c2ccc(NC(=O)N(C)C)cc2)n1
Procedure, shortened: as §1

[5] = compound: CN1CCC(CNc2ccc3ncc(-c4cccc(OC(F)(F)F)c4)n3n2)CC1
Procedure, shortened: as §1

saracatinib = compound: CN1CCN(CCOc2cc(OC3CCOCC3)c3c(Nc4c(Cl)ccc5c4OCO5)ncnc3c2)CC1 [saracatinib]
Procedure, shortened: as §1

sotrastaurin = compound: CN1CCN(c2nc(C3=C(c4c[nH]c5ccccc45)C(=O)NC3=O)c3ccccc3n2)CC1 [sotrastaurin]
Procedure, shortened: as §1

alvocidib = compound: CN1CC[C@H](c2c(O)cc(O)c3c(=O)cc(-c4ccccc4Cl)oc23)[C@H](O)C1 [alvocidib]
Procedure, shortened: as §1

Tubastatin A = compound: CN1CCc2c(c3ccccc3n2Cc2ccc(C(=O)NO)cc2)C1 [Tubastatin A]
Procedure, shortened: as §1

[6] = compound: CNC(=O)C1=CC=CC=C1NC2=NC(=NC=C2Cl)NC3=C(C=C(C=C3)N4CCOCC4)OC
Procedure, shortened: as §1

defactinib = compound: CNC(=O)c1ccc(Nc2ncc(C(F)(F)F)c(NCc3nccnc3N(C)S(C)(=O)=O)n2)cc1 [defactinib]
Procedure, shortened: as §1

[7] = compound: CNc1nc(-c2ccc3c(N)n[nH]c3c2)cc(N2C[C@@H](C(=O)NC3CCCCC3)CC[C@H]2C)n1
Procedure, shortened: as §1

encorafenib = compound: COC(=O)N[C@@H](C)CNc1nccc(-c2cn(C(C)C)nc2-c2cc(Cl)cc(NS(C)(=O)=O)c2F)n1 [encorafenib]
Procedure, shortened: as §1

[8] = compound: COC(=O)[C@H](CCSC)NC(=O)C1=C(C=C(C=C1)NC[C@H](CS)N)C2=CC=CC=C2
Procedure, shortened: as §1

alisertib = compound: COc1cc(Nc2ncc3c(n2)-c2ccc(Cl)cc2C(c2c(F)cccc2OC)=NC3)ccc1C(=O)O [alisertib]
Procedure, shortened: as §1

[9] = compound: COc1cc2nc(-c3cc(F)ccc3O)nc(N[C@@H]3CNC[C@H]3C(C)(C)O)c2cc1OC
Procedure, shortened: as §1

gefitinib = compound: COc1cc2ncnc(Nc3ccc(F)c(Cl)c3)c2cc1OCCCN1CCOCC1 [gefitinib]
Procedure, shortened: as §1

Row | Target | log2 fold change (vemurafenib) | log2 fold change [1] | log2 fold change (barasertib) | log2 fold change [2] | log2 fold change (volasertib) | log2 fold change [3] | log2 fold change [4] | log2 fold change [5] | log2 fold change (saracatinib) | log2 fold change (sotrastaurin) | log2 fold change (alvocidib) | log2 fold change (Tubastatin A) | log2 fold change [6] | log2 fold change (defactinib) | log2 fold change [7] | log2 fold change (encorafenib) | log2 fold change [8] | log2 fold change (alisertib) | log2 fold change [9] | log2 fold change (gefitinib)
1 | HNRNPH2 (UniProt P55795) | inactive: -0.004 | inactive: 0.025 | inactive: -0.003 | inactive: 0.05 | inactive: -0.056 | inactive: 0.008 | inactive: -0.01 | inactive: -0.056 | inactive: -0.025 | inactive: -0.074 | inactive: -0.003 | inactive: -0.209 | inactive: 0.02 | inactive: 0.019 | inactive: -0.043 | inactive: 0.037 | inactive: -0.032 | inactive: -0.004 | inactive: -0.007 | inactive: -0.047
2 | HMGCS1 (UniProt Q01581) | inactive: 0.008 | inactive: -0.009 | inactive: -0.038 | inactive: -0.003 | inactive: -0.017 | inactive: 0.014 | inactive: -0.005 | inactive: 0.009 | inactive: 0.004 | inactive: -0.014 | inactive: 0.021 | inactive: -0.073 | inactive: 0.004 | inactive: -0.011 | inactive: 0.006 | inactive: -0.021 | inactive: 0.078 | inactive: 0.012 | inactive: -0.002 | inactive: 0.013
3 | HNRNPD isoform 2 (UniProt Q14103) | inactive: 0.011 | inactive: 0.002 | inactive: -0.052 | inactive: 0.022 | inactive: 0.029 | inactive: -0.036 | active: 0.857 | inactive: -0.135 | inactive: 0 | inactive: -0.08 | inactive: 0.142 | inactive: 0.108 | inactive: 0.001 | inactive: -0.043 | inactive: 0.065 | inactive: -0.032 | inactive: -0.008 | inactive: 0.018 | inactive: -0.008 | inactive: 0
4 | HIST2H3A (UniProt Q71DI3) | inactive: -0.017 | inactive: 0.015 | inactive: -0.021 | inactive: -0.009 | inactive: 0.006 | inactive: 0.004 | inactive: 0.061 | inactive: 0.028 | inactive: 0.007 | inactive: -0.074 | inactive: -0.041 | inactive: 0.027 | inactive: -0.031 | inactive: 0.002 | inactive: 0.234 | inactive: 0.023 | inactive: 0.071 | inactive: -0.004 | inactive: -0.004 | inactive: 0.005
5 | HSP90AB4P (UniProt Q58FF6) | inactive: 0.085 | inactive: -0.01 | inactive: 0.311 | inactive: -0.175 | inactive: 0.033 | inactive: -0.211 | inactive: 0.263 | inactive: 0.036 | inactive: 0.078 | inactive: 0.022 | inactive: -0.218 | inactive: 0.167 | inactive: -0.073 | inactive: -0.165 | inactive: 0.015 | inactive: 0.129 | inactive: 0.026 | inactive: 0.03 | inactive: 0.08 | inactive: -0.166
6 | HIKESHI (UniProt Q53FT3) | inactive: -0.146 | inactive: 0.004 | inactive: 0.065 | inactive: 0.003 | inactive: 0.009 | inactive: 0.083 | inactive: -0.12 | inactive: -0.005 | inactive: 0 | inactive: -0.002 | inactive: 0.027 | inactive: -0.02 | inactive: 0.015 | inactive: 0.053 | inactive: 0.033 | inactive: -0.024 | inactive: -0.03 | inactive: 0.038 | inactive: -0.009 | inactive: -0.026
7 | HRC (UniProt P23327) | inactive: 0.049 | inactive: 0.011 | inactive: -0.02 | inactive: 0.063 | inactive: 0.019 | inactive: 0.025 | inactive: -0.04 | inactive: -0.039 | inactive: -0.014 | inactive: 0.003 | inactive: -0.107 | inactive: 0.068 | inactive: -0.029 | inactive: 0.001 | inactive: -0.015 | inactive: -0.016 | inactive: -0.005 | inactive: 0.012 | inactive: 0.023 | inactive: 0.009
8 | HNRNPAB isoform 3 (UniProt Q99729) | inactive: 0.018 | inactive: -0.001 | inactive: -0.003 | inactive: 0.033 | inactive: 0.019 | inactive: 0.011 | inactive: -0.096 | inactive: -0.004 | inactive: 0.027 | inactive: -0.013 | inactive: -0.018 | inactive: 0.021 | inactive: -0.018 | inactive: 0.017 | inactive: 0.043 | inactive: -0.012 | inactive: -0.016 | inactive: -0.035 | inactive: 0 | inactive: 0.03
9 | HMCES (UniProt Q96FZ2) | inactive: 0.127 | inactive: -0.012 | inactive: -0.028 | inactive: -0.056 | inactive: -0.034 | inactive: -0.02 | inactive: 0.09 | inactive: 0.093 | inactive: -0.012 | inactive: 0.019 | inactive: -0.034 | inactive: -0.153 | inactive: 0.062 | inactive: -0.008 | inactive: 0.032 | inactive: -0.014 | inactive: 0.064 | inactive: 0.03 | inactive: -0.005 | inactive: -0.07
10 | HELQ (UniProt Q8TDG4) | inactive: 0.12 | inactive: -0.064 | inactive: 0.036 | inactive: 0.048 | inactive: 0.01 | inactive: -0.044 | inactive: 0.038 | inactive: -0.104 | inactive: -0.058 | inactive: 0.057 | inactive: 0.059 | inactive: -0.016 | inactive: 0.045 | inactive: 0.037 | inactive: 0.054 | inactive: 0.046 | inactive: 0.09 | inactive: 0.132 | inactive: -0.041 | inactive: -0.177
11 | HSPA13 (UniProt P48723) | inactive: -0.026 | inactive: 0.031 | inactive: -0.018 | inactive: -0.025 | inactive: -0.031 | inactive: 0.043 | inactive: 0 | inactive: -0.046 | inactive: 0.015 | inactive: -0.002 | inactive: 0.027 | inactive: -0.059 | inactive: 0.019 | inactive: -0.028 | inactive: -0.015 | inactive: 0.01 | inactive: -0.018 | inactive: 0.032 | inactive: 0.008 | inactive: 0.002
12 | HSPA1L (UniProt P34931) | inactive: -0.075 | inactive: -0.059 | inactive: -0.095 | inactive: -0.128 | inactive: -0.004 | inactive: -0.225 | inactive: 0.039 | inactive: 0.029 | inactive: 0.043 | inactive: 0.064 | inactive: -0.004 | inactive: 0.151 | inactive: -0.03 | inactive: -0.022 | inactive: 0.019 | inactive: 0.002 | inactive: -0.008 | inactive: 0.031 | inactive: -0.023 | inactive: 0.058
13 | HELB (UniProt Q8NG08) | inactive: -0.071 | inactive: 0 | inactive: 0.024 | inactive: -0.087 | inactive: -0.051 | inactive: 0.014 | inactive: 0.026 | inactive: 0.005 | inactive: -0.053 | inactive: -0.006 | inactive: -0.028 | inactive: -0.028 | inactive: 0.011 | inactive: -0.016 | inactive: 0.024 | inactive: 0.009 | inactive: -0.011 | inactive: 0.012 | inactive: 0.021 | inactive: -0.007
14 | HMGB1 (UniProt P09429) | inactive: -0.01 | inactive: -0.014 | inactive: -0.013 | inactive: 0.102 | inactive: 0.035 | inactive: -0.039 | active: 0.389 | inactive: -0.184 | inactive: -0.011 | inactive: -0.075 | inactive: 0.126 | inactive: 0.059 | inactive: 0.01 | inactive: 0.074 | inactive: 0.046 | inactive: -0.006 | inactive: -0.09 | inactive: -0.043 | inactive: -0.025 | inactive: -0.131
15 | HECTD3 (UniProt Q5T447) | inactive: -0.046 | inactive: 0.007 | inactive: -0.039 | inactive: -0.022 | inactive: -0.024 | inactive: 0.018 | inactive: -0.004 | inactive: -0.027 | inactive: 0.032 | inactive: 0.027 | inactive: 0.007 | inactive: -0.047 | inactive: 0.02 | inactive: 0.045 | inactive: -0.023 | inactive: 0.02 | inactive: 0.11 | inactive: -0.015 | inactive: 0.002 | inactive: 0.014
16 | HIP1 (UniProt O00291) | inactive: 0.037 | inactive: 0.032 | inactive: 0.007 | inactive: 0.003 | inactive: 0.008 | inactive: 0.007 | inactive: -0.055 | inactive: -0.025 | inactive: 0.006 | inactive: 0.026 | inactive: -0.006 | inactive: -0.006 | inactive: 0.006 | inactive: -0.03 | inactive: 0.019 | inactive: 0.018 | inactive: 0.015 | inactive: -0.041 | inactive: 0.002 | inactive: -0.008

Record cards (already shown). Order of values: log2 fold change (vemurafenib) | log2 fold change [1] | log2 fold change (barasertib) | log2 fold change [2] | log2 fold change (volasertib) | log2 fold change [3] | log2 fold change [4] | log2 fold change [5] | log2 fold change (saracatinib) | log2 fold change (sotrastaurin) | log2 fold change (alvocidib) | log2 fold change (Tubastatin A) | log2 fold change [6] | log2 fold change (defactinib) | log2 fold change [7] | log2 fold change (encorafenib) | log2 fold change [8] | log2 fold change (alisertib) | log2 fold change [9] | log2 fold change (gefitinib)
HNRNPD isoform 2 (UniProt Q14103) is entered as inactive: 0.011 | inactive: 0.002 | inactive: -0.052 | inactive: 0.022 | inactive: 0.029 | inactive: -0.036 | active: 0.857 | inactive: -0.135 | inactive: 0 | inactive: -0.08 | inactive: 0.142 | inactive: 0.108 | inactive: 0.001 | inactive: -0.043 | inactive: 0.065 | inactive: -0.032 | inactive: -0.008 | inactive: 0.018 | inactive: -0.008 | inactive: 0
HMGB1 (UniProt P09429) is entered as inactive: -0.01 | inactive: -0.014 | inactive: -0.013 | inactive: 0.102 | inactive: 0.035 | inactive: -0.039 | active: 0.389 | inactive: -0.184 | inactive: -0.011 | inactive: -0.075 | inactive: 0.126 | inactive: 0.059 | inactive: 0.01 | inactive: 0.074 | inactive: 0.046 | inactive: -0.006 | inactive: -0.09 | inactive: -0.043 | inactive: -0.025 | inactive: -0.131

Source: the supplement of paper PMC10849652
